Measurements reported in PMC4542545.
No constants are given. Whether binding was seen depends on the method and setting. Binding seen in cells or lysates may run through a third protein.

The chains behind the UniProt entries cited, without tags or fusion partners. Where a name states a change or a piece, a line headed by the entry shows the natural chain unless it says otherwise. A line that says so, or that is headed by a name, gives the form on record, which may keep a tag or linker. Residues count along the entry.
UniProt O94811: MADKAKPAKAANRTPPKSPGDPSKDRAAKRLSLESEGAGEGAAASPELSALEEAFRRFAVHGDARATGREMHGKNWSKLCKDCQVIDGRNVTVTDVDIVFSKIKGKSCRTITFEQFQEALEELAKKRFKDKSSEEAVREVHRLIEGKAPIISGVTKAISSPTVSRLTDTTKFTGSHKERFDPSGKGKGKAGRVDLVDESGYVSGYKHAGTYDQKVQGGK
TPPP/p25 ΔC(158) fused to a Venus N-terminal fragment: residues 1-157 of O94811
TPPP/p25 ΔN(49) fused to a Venus N-terminal fragment: residues 50-219 of O94811

Legend:
Assay in all cases: split reporter; Venus BiFC in HeLa cells co-transfected with VN and VC fusions (0.3 μg of each plasmid), fixed 24 h later; some cells treated 3 h with nocodazole or vinblastine
[1] = biological target: TPPP/p25 ΔN(49) fused to a Venus N-terminal fragment (human) (UniProt O94811)
[2] = biological target: TPPP/p25 ΔC(158) fused to a Venus N-terminal fragment (human) (UniProt O94811)
[3] = biological target: myc-tagged full-length TPPP/p25 fused to VN155(I152L) (human) (UniProt O94811)

- binding [1]: no binding
- binding [2]: no binding
- binding [3]: no binding
Substance: HA-tagged TPPP/p25 core fused to VC155 (from UniProt O94811 50-157) (domain or fragment)
